# Assay results reported in PubChem BioAssay AID445 (National Center for Advancing Translational Sciences (NCATS), 2006).
# The list shows a part of the results. Further columns of the screen follow, without active or inactive calls. Compounds called inactive in the main read-out are mostly missing here. The note in brackets gives the kind of curve behind each potency; many fits are weak.
# Test: IkB Signaling
# Conditions: ABC-DLBCL IkBa-CBG/CBR dual luciferase ratio (green luciferase fused to IkBa over red control in OCI-Ly3 lymphoma cells), 4 h
# How it was run: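 In this assay, an IκBα–CBG68 fusion accumulates when IKK-driven degradation is blocked; native CBR normalizes for cell number. OCI-Ly3 cells were treated 4 h with compound and doxycycline, then green and red light read after Chroma-Glo addition.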
# [1] = measured here: control luc red channel unless noted
smiles,measurement,setting,value
Cc1ccc(OCC(=O)N(Cc2ccco2)Cc2ccco2)cc1,AC50,[1],"31.6 µM [falling, single point]"
Cc1ccc2cccc(S(=O)(=O)Nc3ccc4c(c3)OCO4)c2n1,AC50,[1],"25.1 µM [falling, partial curve]"
CCOc1ccc(CCNC(=O)Cc2ccc(NC(=O)N3CCSc4ncccc43)cc2)cc1,AC50,[1],"39.8 µM [falling, single point]"
COc1ccc(-n2nc(C(=O)N3CCN(c4cccc(C(F)(F)F)c4)CC3)c3c4ccccc4n(C)c3c2=O)cc1Cl,AC50,[1],"2.51 µM [rising, partial curve]"
COc1ccc(-c2n[nH]c(C)c2-c2ccc(Cl)cc2)c(O)c1OC,AC50,[1],"10 µM [falling, partial curve]"
COc1cc(OC)cc(C(=O)Nc2nc(-c3nnn(-c4ccc(F)c(Cl)c4)c3C)ns2)c1,AC50,[1],"39.8 µM [rising, single point]"
O=C(CSc1nc(O)c(C/C=C/c2ccccc2)c(=O)[nH]1)Nc1cccc(F)c1,AC50,[1],"7.94 µM [falling, partial curve]"
COc1ccc(-c2csc3c2[N+]2=CCC=C2C3=O)cc1,AC50,measured here: IkB-luc green channel,"3.98 µM [rising, partial curve]"
same,AC50,measured here: control luc red channel,"1.58 µM [rising, partial curve]"
CCCCSc1nnc(-c2ccc(C)cc2)o1,AC50,[1],"15.8 µM [falling, partial curve]"
CN(C(=O)c1oc(=O)c2ccccc2c1-c1ccccc1)c1cccc(Cl)c1,AC50,[1],"12.6 µM [falling, partial curve]"
CCCn1c(=O)c2sccc2n2c(CCCC(=O)Nc3ccccc3F)nnc12,AC50,[1],"39.8 µM [falling, single point]"
Cc1ccc(N2CCN(C(=O)c3c(C)oc4nc(C)nc(N5CCCC5)c34)CC2)c(C)c1,AC50,[1],"25.1 µM [falling, single point]"
COc1cccc(NS(=O)(=O)c2ccc(Br)s2)c1,AC50,[1],"7.94 µM [falling, partial curve]"
CCCCCCC(=O)N1CCC(c2nc3c(nnn3Cc3ccccc3Cl)c(=O)[nH]2)CC1,AC50,[1],"31.6 µM [falling, single point]"
Cc1cccc(-n2ncc(C(=O)NCc3ccco3)c2C2CCN(C(=O)OC(C)(C)C)CC2)c1,AC50,[1],"25.1 µM [falling, partial curve]"
Cc1nc2cccnc2n1C1CCN(S(=O)(=O)c2ccc(C(C)C)cc2)CC1,AC50,[1],"15.8 µM [falling, partial curve]"
CCOc1ccc2[nH]c(=O)c(CN(Cc3cccs3)Cc3nnnn3C(C)(C)C)cc2c1,AC50,[1],"31.6 µM [falling, single point]"
O=C(CSc1nc(-c2ccco2)nc2cc(=O)[nH]n12)Nc1ccccc1F,AC50,[1],"15.8 µM [falling, single point]"
Cc1cccc(N2CCN(C(=O)C3CCN(S(=O)(=O)c4cccc5nsnc45)CC3)CC2C)c1 (stereo unspecified),AC50,[1],"7.94 µM [falling, partial curve]"
COc1ccc(NC(=O)CSc2nc(C)cc(C)c2C(=O)Nc2cccc(C)c2)cc1,AC50,[1],"31.6 µM [falling, single point]"
c1ccc(-n2nnnc2-n2nnc3ccccc32)cc1,AC50,[1],"3.98 µM [rising, partial curve]"
CCOc1ccc(-c2cc(CCCC(=O)NCCc3ccc(OCC)c(OCC)c3)no2)cc1,AC50,[1],"0.501 µM [falling, full curve]"
C[C@@H](NC(=O)CN(c1ccccc1)S(=O)(=O)N(C)C)c1ccccc1,AC50,[1],"12.6 µM [falling, partial curve]"
Cc1ccc(NC(=O)Nc2ccc3nc(N4CCN(C)CC4)cc(C)c3c2)cc1C,AC50,[1],"39.8 µM [falling, single point]"
Cc1ccccc1NC(=O)c1ccc(F)c(S(=O)(=O)NC2CCCC2)c1,AC50,[1],"12.6 µM [falling, single point]"
CCN1CCN(C(=O)c2ccc3c(c2)N(Cc2ccccc2F)C(=O)c2ccccc2S3(=O)=O)CC1,AC50,[1],"1.26 µM [falling, partial curve]"
Cc1cc2nc(-c3ccc(Cl)cc3)cc(C(F)(F)F)n2n1,AC50,[1],"6.31 µM [rising, partial curve]"
CC(=O)c1cccc(NC(=O)CSc2nnc3ccc(-c4ccc(C)cc4)nn23)c1,AC50,[1],"7.94 µM [falling, single point]"
O=C(NCc1ccco1)C1CCN(C(=O)N2CCOc3ccc(Cl)cc32)CC1,AC50,[1],"12.6 µM [falling, partial curve]"
O=c1cc2nc(-c3cccs3)nc(SCCOc3ccc(Cl)cc3)n2[nH]1,AC50,[1],"25.1 µM [rising, partial curve]"
COc1cc(Cl)c(C)cc1Nc1nc2ccccc2nc1NS(=O)(=O)c1ccccc1,AC50,[1],"0.02 µM [falling, full curve]"
COc1ccc(-c2noc(CN3CCN(c4ccccc4F)CC3)n2)cc1OC,AC50,[1],"15.8 µM [falling, partial curve]"
Cc1cccc(C(=O)Nc2ccc(-c3nc4cc(C(C)C)ccc4o3)cc2)c1,AC50,[1],"7.94 µM [falling, partial curve]"
Cc1ccc(N2CCN(C(=O)NCc3noc4ccccc34)CC2C)cc1 (stereo unspecified),AC50,[1],"10 µM [falling, partial curve]"
O=C(Oc1cc(=O)oc2ccccc12)c1ccco1,AC50,[1],"0.158 µM [falling, full curve]"
COc1cccc(-c2cc(C(=O)NCc3ccco3)no2)c1,AC50,[1],"12.6 µM [falling, partial curve]"
COc1ccc(Cl)cc1S(=O)(=O)N1CCN(Cc2cccc(F)c2)CC1,AC50,[1],"10 µM [falling, partial curve]"
O=C(c1ccco1)N1CCN(c2c(-c3ccccc3)c3cc(Cl)ccc3[nH]c2=O)CC1,AC50,[1],"15.8 µM [falling, partial curve]"
CCCOc1ccc(C(=O)N(Cc2cccs2)c2ccc(C)cc2)cc1,AC50,[1],"20 µM [falling, partial curve]"
COc1ccc(-c2c3c(nc4sc(C(=O)Nc5ccc(F)cc5)c(N)c24)CC(C)(C)CC3=O)cc1,AC50,[1],"15.8 µM [falling, partial curve]"

# Exported as tab-separated lines: part of the list above.
smiles	measurement	setting	value
COc1ccc(-n2nc(C(=O)N3CCN(c4cccc(C(F)(F)F)c4)CC3)c3c4ccccc4n(C)c3c2=O)cc1Cl	AC50	[1]	2.51 µM [rising, partial curve]
COc1ccc(-c2n[nH]c(C)c2-c2ccc(Cl)cc2)c(O)c1OC	AC50	[1]	10 µM [falling, partial curve]
